Experimental data taken from publication PMC5222340, “The Arginine Pairs and C-Termini of the Sso7c4 from Sulfolobus solfataricus Participate in Binding and Bending DNA”.
Numbering of substitutions follows the chain as printed. For at least one entry, the source does not settle the construct or the ends of the probe. For part of these data: A weaker result is weaker than the reference pair of the same experiment. Where a protein sequence is shown, tags need not be part of it. For part of these data: At least one verdict rests on a figure or table, not on a statement of the authors.

Columns and labels:
[1] = target: T1, Sso7c4-R11A/R22A (Sulfolobus solfataricus P2) (UniProt A0A0E3K9N8); test: fluorescence polarization; settings: no saturation up to 4.33 mM protein; 20 mM Tris-Cl pH 7.5, no added salt, 25 C; FP with 100 nM FAM-DNA, 1 h at room temperature; recombinant protein; label: 5'-FAM
T1 sequence (looked up, limits assumed): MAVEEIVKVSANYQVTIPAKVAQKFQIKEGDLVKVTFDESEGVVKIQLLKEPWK

[2] = target: T2, C-terminally truncated Sso7c4 del49-54 (Sulfolobus solfataricus P2) (UniProt A0A0E3K9N8); test: bulk FRET; settings: saturating protein, distance unchanged; 20 mM Tris-Cl pH 7.5, no added salt, 25 C; recombinant protein; residues 1-48; label: Cy3 and Cy5 on the 5' ends
T2 sequence (looked up): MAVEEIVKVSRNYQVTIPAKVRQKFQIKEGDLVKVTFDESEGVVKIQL

[3] = target: T3, Sso7c4 wild-type (Sulfolobus solfataricus P2) (UniProt A0A0E3K9N8); test: bulk FRET; settings: saturating protein, little distance change; 20 mM Tris-Cl pH 7.5, no added salt, 25 C; recombinant protein; label: Cy3 and Cy5 on the 5' ends
T3 sequence (looked up, limits assumed): T1 sequence (looked up, limits assumed) with A11R, A22R

Sequence | binding result [1] | binding result [2] | binding result [3]
CCAACACTGGCCAGTGTTGG (double strand) [5'-FAM-20-bp DNA] | binds more weakly |  | 
CGTGCTCTGCGATCTCTTCG (double strand) [20 bp FRET DNA] |  | binds | binds
